# Assay results from patent US20100092479A1, “Compositions and methods for treatment of viral diseases” (CombinatoRx (Singapore) Pte. Ltd., priority 2008, published 2010).
# Structures can show the parent of a compound that is named as a salt.
# System: Huh7 cells expressing a subgenomic RNA replicon of Con1 (genotype 1b)
# Assay: HCV replicon assay (luciferase, SteadyLite), Example 1
# Type: cell-based
# Details: Hepatitis C virus, Huh-7; single agent; read-out: IC50 (concentration required to achieve 50% inhibition of viral replication)
# Experimental: The HCV replicon assay enables screening of compounds with antiviral activity against HCV viral RNA replication. Huh7 cells expressing a subgenomic RNA replicon of Con1 (genotype 1b) sequence origin and expressing the reporter enzyme luciferase were obtained from ReBLikon, GmBH. In order to perform the assay, replicon cells were seeded on a 384-well plate at 4,000 cells/well in a total volume of 30 μL well. The plated cells were incubated at 37° C., 5% CO2. Pre-diluted compounds at a 10× concentration were added to each well to achieve the desired final concentration. Plates were centrifuged at 900×g, 1 minute following the addition of compounds. Cells were incubated an additional 48 hours or 72 hours at 37° C., 5% CO2. […] Antiviral activity was quantified by the inhibition of luciferase activity. […]
# For screens involving a combination of compounds, a synergy score was calculated by the formula S=log fX log fYΣIdata(Idata−/ILoewe), summed over all non-single-agent concentration pairs, and where log fX,Y are the natural logarithm of the dilution factors used for each single agent. This effectively calculates a volume between the measured and Loewe additive response surfaces, weighted towards high inhibition and corrected for varying dilution factors. […]
smiles,measurement,value
"CCN(CC)CCOc1ccc(/C(=C(\Cl)c2ccccc2)c2ccccc2)cc1 [Clomiphene citrate, Clomiphene]",IC50,1010 nM
